# According to the supplement of paper PMC8728848:
# The list shows a part of the results.
# B1: Loc1 (Escherichia coli) (protein)
# chain: APCALTNVGEQRGTYILKPLSMKGNLTAEKIENTGNIIECTDLQETTNAIKVHFLTQNALKFKVGSRHYIINFPFEYDGKKIELPGKSSYNLEEMLSAINFTIPYSIASVSDSSNTADIFPGTPFPLLFEIEVSSCTGNNTNCNSVRFNYNLNTILQVNLMTHHHHHH
# Assays:
# Assay in all cases: glycan array binding signal (z-score within array); higher = stronger binding
# Conditions in all cases: glycan notation: IUPAC condensed, linker removed
# [1] = target: Gal(b1-4)GlcNAc(b1-3)Gal(b1-4)GlcNAc(b1-3)Gal(b1-4)GlcNAc(b1-3)Gal(b1-4)GlcNAc(b1-2)Man(a1-3)[Gal(b1-4)GlcNAc(b1-3)Gal(b1-4)GlcNAc(b1-3)Gal(b1-4)GlcNAc(b1-3)Gal(b1-4)GlcNAc(b1-2)Man(a1-6)]Man(b1-4)GlcNAc(b1-4)[Fuc(a1-6)]GlcNAc
# How it was run: (§1)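 The binding signal is a Z-score computed within each array. Data were drawn from 3228 arrays in the Consortium for Functional Glycomics database, restricted to those with a known protein sequence. Scores were averaged over arrays of the same protein sequence at different concentrations or buffers, and over linkers, and negative values can be taken as non-binding.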
# [2] = target: Gal(b1-4)GlcNAc(b1-3)Gal(b1-4)GlcNAc(b1-3)Gal(b1-4)GlcNAc(b1-3)Gal(b1-4)GlcNAc(b1-2)[Gal(b1-4)GlcNAc(b1-3)Gal(b1-4)GlcNAc(b1-3)Gal(b1-4)GlcNAc(b1-3)Gal(b1-4)GlcNAc(b1-6)]Man(a1-6)[Gal(b1-4)GlcNAc(b1-3)Gal(b1-4)GlcNAc(b1-3)Gal(b1-4)GlcNAc(b1-3)Gal(b1-4)GlcNAc(b1-2)Man(a1-3)]Man(b1-4)GlcNAc(b1-4)[Fuc(a1-6)]GlcNAc
# How it was run: as §1
# [3] = target: Gal(b1-4)GlcNAc(b1-3)Gal(b1-4)GlcNAc(b1-3)Gal(b1-4)GlcNAc(b1-3)Gal(b1-4)GlcNAc(b1-3)Gal(b1-4)GlcNAc(b1-2)Man(a1-3)[Gal(b1-4)GlcNAc(b1-3)Gal(b1-4)GlcNAc(b1-3)Gal(b1-4)GlcNAc(b1-3)Gal(b1-4)GlcNAc(b1-3)Gal(b1-4)GlcNAc(b1-2)Man(a1-6)]Man(b1-4)GlcNAc(b1-4)GlcNAc
# How it was run: as §1
# [4] = target: Gal(b1-4)GlcNAc(b1-3)Gal(b1-4)GlcNAc(b1-3)Gal(b1-4)GlcNAc(b1-3)Gal(b1-4)GlcNAc(b1-3)Gal(b1-4)GlcNAc(b1-2)Man(a1-3)[Gal(b1-4)GlcNAc(b1-3)Gal(b1-4)GlcNAc(b1-3)Gal(b1-4)GlcNAc(b1-3)Gal(b1-4)GlcNAc(b1-3)Gal(b1-4)GlcNAc(b1-2)Man(a1-6)]Man(b1-4)GlcNAc(b1-4)[Fuc(a1-6)]GlcNAc
# How it was run: as §1
# [5] = target: Gal(b1-4)GlcNAc(b1-3)Gal(b1-4)GlcNAc(b1-3)Gal(b1-4)GlcNAc(b1-3)Gal(b1-4)GlcNAc(b1-3)Gal(b1-4)GlcNAc(b1-2)[Gal(b1-4)GlcNAc(b1-3)Gal(b1-4)GlcNAc(b1-3)Gal(b1-4)GlcNAc(b1-3)Gal(b1-4)GlcNAc(b1-3)Gal(b1-4)GlcNAc(b1-6)]Man(a1-6)[Gal(b1-4)GlcNAc(b1-3)Gal(b1-4)GlcNAc(b1-3)Gal(b1-4)GlcNAc(b1-3)Gal(b1-4)GlcNAc(b1-3)Gal(b1-4)GlcNAc(b1-2)Man(a1-3)]Man(b1-4)GlcNAc(b1-4)[Fuc(a1-6)]GlcNAc
# How it was run: as §1
# [6] = target: Gal(b1-4)GlcNAc(b1-3)Gal(b1-4)GlcNAc(b1-3)Gal(b1-4)GlcNAc(b1-3)Gal(b1-4)GlcNAc(b1-3)Gal(b1-4)GlcNAc(b1-3)Gal(b1-4)GlcNAc(b1-2)Man(a1-3)[Gal(b1-4)GlcNAc(b1-3)Gal(b1-4)GlcNAc(b1-3)Gal(b1-4)GlcNAc(b1-3)Gal(b1-4)GlcNAc(b1-3)Gal(b1-4)GlcNAc(b1-3)Gal(b1-4)GlcNAc(b1-2)Man(a1-6)]Man(b1-4)GlcNAc(b1-4)GlcNAc
# How it was run: as §1
# [7] = target: Gal(b1-4)GlcNAc(b1-3)Gal(b1-4)GlcNAc(b1-3)GalNAc
# How it was run: as §1
# [8] = target: Gal(b1-4)GlcNAc(b1-3)Gal(b1-4)GlcNAc(b1-3)[Gal(b1-4)GlcNAc(b1-3)Gal(b1-4)GlcNAc(b1-6)]GalNAc
# How it was run: as §1
# [9] = target: Gal(b1-4)GlcNAc(b1-3)Gal(b1-4)GlcNAc(b1-6)[Gal(b1-3)]GalNAc
# How it was run: as §1
# [10] = target: Gal(b1-4)GlcNAc(b1-3)Gal(b1-4)[Fuc(a1-3)]GlcNAc(b1-3)Gal(b1-4)[Fuc(a1-3)]GlcNAc
# How it was run: as §1
# [11] = target: Gal(b1-4)GlcNAc(b1-3)GalNAc
# How it was run: as §1
# [12] = target: Gal(b1-4)GlcNAc(b1-3)[Fuc(a1-3)GlcNAc(b1-6)]Gal(b1-4)Glc
# How it was run: as §1
# [13] = target: Gal(b1-4)GlcNAc(b1-3)[Gal(b1-4)GlcNAc(b1-6)]Gal(b1-4)GlcNAc
# How it was run: as §1
# [14] = target: Gal(b1-4)GlcNAc(b1-3)[GlcNAc(b1-6)]Gal(b1-4)GlcNAc
# How it was run: as §1
# [15] = target: Gal(b1-4)GlcNAc(b1-6)Gal(b1-4)GlcNAc
# How it was run: as §1
# [16] = target: Gal(b1-4)GlcNAc(b1-6)GalNAc
# How it was run: as §1
# [17] = target: Gal(b1-4)GlcNAc(b1-6)[Gal(b1-3)]GalNAc
# How it was run: as §1
# [18] = target: Gal(b1-4)GlcNAc(b1-6)[Gal(b1-4)GlcNAc(b1-3)]GalNAc
# How it was run: as §1
# Gal(b1-4)GlcNAc6P = target: Gal(b1-4)GlcNAc6P
# How it was run: as §1
# Gal(b1-6)Gal = target: Gal(b1-6)Gal
# How it was run: as §1
# Gal3S(b1-3)GalNAc = target: Gal3S(b1-3)GalNAc
# How it was run: as §1
# Gal3S(b1-3)GlcNAc = target: Gal3S(b1-3)GlcNAc
# How it was run: as §1
# [19] = target: Gal3S(b1-3)[Fuc(a1-4)]GlcNAc
# How it was run: as §1
binder,measurement,setting,value
B1,glycan array binding signal (z-score),[1],2.43
same,glycan array binding signal (z-score),[2],-0.474
same,glycan array binding signal (z-score),[3],0.363
same,glycan array binding signal (z-score),[4],1.98
same,glycan array binding signal (z-score),[5],0.935
same,glycan array binding signal (z-score),[6],0.16
same,glycan array binding signal (z-score),[7],-0.212
same,glycan array binding signal (z-score),[8],0.233
same,glycan array binding signal (z-score),[9],-0.562
same,glycan array binding signal (z-score),[10],0.555
same,glycan array binding signal (z-score),[11],-0.258
same,glycan array binding signal (z-score),[12],-0.118
same,glycan array binding signal (z-score),[13],0.396
same,glycan array binding signal (z-score),[14],-0.48
same,glycan array binding signal (z-score),[15],-0.424
same,glycan array binding signal (z-score),[16],-0.233
same,glycan array binding signal (z-score),[17],0.844
same,glycan array binding signal (z-score),[18],1.15
same,glycan array binding signal (z-score),Gal(b1-4)GlcNAc6P,-0.213
same,glycan array binding signal (z-score),Gal(b1-6)Gal,-0.579
same,glycan array binding signal (z-score),Gal3S(b1-3)GalNAc,0.608
same,glycan array binding signal (z-score),Gal3S(b1-3)GlcNAc,0.067
same,glycan array binding signal (z-score),[19],-0.024

# Part of the list above, as tab-separated lines:
binder	measurement	setting	value
B1	glycan array binding signal (z-score)	[5]	0.935
same	glycan array binding signal (z-score)	[8]	0.233
same	glycan array binding signal (z-score)	[12]	-0.118
same	glycan array binding signal (z-score)	Gal3S(b1-3)GlcNAc	0.067
